Square brackets hold non-standard residues; d marks the D form. Peptide text beside a SMILES is read from it.
Tests used:
[1] = Isothermal titration calorimetry of Ca2+ binding in 10% acetonitrile in water; settings: ITC, 30°C, no DPC, mean of three experiments ± standard error mean
Experimental: (§1) Microcalorimetric titrations of peptides with metal ions were conducted by isothermal titration microcalorimetry (ITC) using a Microcal VP-ITC Instrument (Northampton, MA, USA). Experiments were carried out at 30°C in 10% acetonitrile in water. The peptide concentration was 0.15 or 0.30 mM (1.34 mL sample cell), and the metal ion [Ca(ClO4)2] concentration was varied from 9 to 15 mM in the syringe. Automated titrations were conducted until saturation, up to a Ca^2+/peptide mole ratio of about 12 : 1. Heats of dilution and mixing for each experiment were measured by titrating calcium(II) solution into 10% acetonitrile solution. The effective heat of each peptide and calcium(II) interaction was corrected for dilution and mixing effects by subtracting the enthalpy change derived from the titration of calcium(II) solution into the 10% acetonitrile solution without the peptide. In a similar way, ITC experiments were carried out at 30°C in 10% aqueous acetonitrile containing 10 mM DPC. These heats of bimolecular interactions were obtained by integrating the peak following each injection of calcium(II). The binding isotherms were derived from the raw ITC data following correction for dilution and mixing effects. These isotherms were fitted using the one-site model by a nonlinear least square analysis with Microcal Origin 7.0 software (Microcal Software, Inc., Northampton, MA, USA) to determine the molar enthalpy change for binding, ΔH, and the corresponding binding constant, K b. From these values, the thermodynamic characterization of the interaction at 30°C was determined from the fundamental equations of thermodynamics, ΔG = −RT ln K b and ΔS = (ΔH − ΔG)/T.

[2] = Isothermal titration calorimetry of Ca2+ binding in micellar DPC (10 mM); settings: ITC, 30°C, 10% aqueous acetonitrile containing 10 mM micellar DPC, mean of three experiments ± standard error mean
Experimental: as §1
In order to mimic the hydrophobic environment of the bacterial membrane that antimicrobial peptides commonly target, the interactions of these cyclopeptides with calcium(II) were also conducted in the presence of micellar dodecylphosphocholine (DPC). […] However, their association is compensated by an increase in entropy (ΔS values range from ca. 42.7 to 66.5 JK^−1 mol^−1). […]

## CC(C)C[C@@H]1NC(=O)[C@@H](CC(C)C)NC(=O)[C@H](CCC(=O)O)NC(=O)[C@@H](CCCCN)NC(=O)[C@H](CCCCN)NC(=O)[C@@H](CCCCN)NC(=O)[C@H](CCCCN)NC(=O)[C@@H](CC(C)C)NC1=O [COP 4] (cyclo(E[dL]L[dL]K[dK]K[dK]))
[1]; one-site model
  Change in enthalpy ΔH: -2.7 ± 0.311 kcal/mol
[1]; ΔG = −RT ln K b
  Change in Gibbs free energy ΔG: -4.8 ± 0.19 kcal/mol
[1]; ΔS = (ΔH − ΔG)/T
  Change in entropy ΔS: 28.9 ± 4.6 J K^−1 mol^−1
[2]; one-site model
  Change in enthalpy ΔH: -0.406 ± 0.024 kcal/mol
[2]; ΔG = −RT ln K b
  Change in Gibbs free energy ΔG: -5.09 ± 0.19 kcal/mol
[2]; ΔS = (ΔH − ΔG)/T
  Change in entropy ΔS: 64.9 ± 2.1 J K^−1 mol^−1

Source: PMC4207412, “Secondary Structural Preferences of Some Antibacterial Cyclooctapeptides in the Presence of Calcium(II)” (International Journal of Medicinal Chemistry, 2012)
